The source gives many values for each of these; only a part stands here.
Test system: library of 8,380 IKZF3 degrons (ZF-eGFP/mCherry reporter) in Jurkat cells
Assay: Pooled library screen (FACS, NGS, limma voom LogFC of positive vs negative read counts)
Type: cell-based, human
Description: A library of 8,380 IKZF3 degrons was cloned into pLVX-Sprout to create the eGFP/mCherry protein degradation reporter plasmid pool. A lentivirus pool was then generated using the Lenti-X lentiviral vector production method.
Jurkat cells were transduced at a multiplicity of infection of <0.3 with the lentivirus vector library in order to maximise the number of cells with a single integration. Transductions were carried out in 6 well TC-treated cell culture dishes (Falcon) with 3×10^6 cells per well. Cells were incubated for 2 days at 37° C. and 5% CO2 before the supernatant was removed and replaced with fresh media. 6 days post-transduction, mCherry+ cells were isolated via FACS using the FACS Aria Fusion (BD) in a buffer containing PBS (Gibco), 2 mM EDTA (Gibco), 25 mM HEPES (Sigma) and 1% BSA (Sigma). 8 days later, cells were treated with DMSO or a thalidomide analog for 18 hours at 37° C. and 5% CO2. mCherry+GFPlow and NOT(mCherry+GFPlow) cells were sorted by FACS using the FACS Aria Fusion (BD). DMSO treated cells were used to set the mCherry+GFPlow gate and dead cells were excluded from sorting by staining cells with 1 μg/mL DAPI (ThermoFisher). gDNA was isolated using the Maxwell RSC 48 (Promega). gDNA from cells that were unsorted and untreated were also isolated to determine the library representation on the day of compound treatment. Throughout the screen >600× coverage of the library was maintained. 3 biological replicates were carried out with a new transduction taking place each time.
A two-step PCR was used where the first PCR (PCR1) amplified the integrated degron sequence from gDNA and the second PCR (PCR2) added Illumina adaptors and barcodes to permit multiplexing. See Supp F for PCR1 and PCR2 primers. Q5 Hot Start High-Fidelity 2× Master Mix (New England Biolabs) was used for both PCRs. Sufficient gDNA was amplified in PCR1 in order to maintain >600× coverage and amplicons were purified using solid phase reversible immobilization (SPRI) beads (Beckman Coulter). Purified PCR1 products were analysed on the Tapestation 4200 (Agilent) to confirm purity prior to proceeding to PCR2. Sufficient PCR1 product was amplified in PCR2 in order to maintain >600× coverage and amplicons were run on a 2% agarose TAE gel. Target bands were excised and purified using the NucleoSpin Gel and PCR Clean-up Kit (Machery Nagel). Amplicons were analysed on the Tapestation 4200 and quantified using Qubit dsDNA HS kit (ThermoFisher). PCR products were pooled and sequenced as paired-reads on the NovaSeq (Illumina) using a SP2 200 cycles kit (Illumina).
Count distributions, percentage of read mapping, library coverage and replicate correlation per sample were assessed for QC purposes.
To carry out the library screen, we used the same plasmid construct as in our earlier flow cytometry assays, but pooling all 8,380 mutants together into one Jurkat population, ensuring a copy number of one plasmid per cell (FIG. 4B). […] These GFP-negative cells were then separated from the remaining GFP-positive population using fluorescence activated cell sorting (FACS). These two populations were then sequenced and the relative abundance of every mutant in both populations compared to provide a log FC value for each mutant sequence. This value indicated how frequently a sequence is observed in the GFP-negative population relative to the GFP-positive population, and therefore how effective a degron it is for that particular IMID compound.

In the case of `O=C1CCC(N2C(=O)c3ccccc3C2=O)C(=O)N1` (centres unmarked) [A32, 2-(2,6-dioxopiperidin-3-yl)isoindoline-1,3-dione], the A32_logFC (Degron-ID 900, SEQ ID NO 190, 46F_47E_49P_50I_52G_53A_54A_55F_67L) was 3.111, the A32_logFC (Degron-ID 951, SEQ ID NO 175, 46F_47E_49P_50V_52G_53A_54N_55F_67L) was 3.164 and the A32_logFC (Degron-ID 1740, SEQ ID NO 197, 46F_47I_49E_50I_52G_53A_54A_55F_67L) was 3.086. For the same compound, the A32_logFC (Degron-ID 1753, SEQ ID NO 176, 46F_47I_49E_50I_52G_53A_54Q_55F_67L) was 3.164, the A32_logFC (Degron-ID 1792, SEQ ID NO 173, 46F_47I_49E_50V_52G_53A_54P_55F_67L) was 3.168 and the A32_logFC (Degron-ID 1872, SEQ ID NO 177, 46F_47I_49P_50I_52G_53A_54P_55F_67L) was 3.163. The A32_logFC (Degron-ID 2232, SEQ ID NO 174, 46F_47L_49E_50I_52G_53A_54P_55F_67L) was 3.168, the A32_logFC (Degron-ID 2352, SEQ ID NO 164, 46F_47L_49P_50I_52G_53A_54P_55F_67L) was 3.184 and the A32_logFC (Degron-ID 2896, SEQ ID NO 141, 46F_47Q_49D_50I_52G_53A_54T_55F_67L) was 3.249. The A32_logFC (Degron-ID 2897, SEQ ID NO 172, 46F_47Q_49D_50I_52G_53A_54V_55F_67L) was 3.169, the A32_logFC (Degron-ID 2936, SEQ ID NO 179, 46F_47Q_49D_50V_52G_53A_54T_55F_67L) was 3.156 and the A32_logFC (Degron-ID 2940, SEQ ID NO 37, 46F_47Q_49E_50I_52G_53A_54A_55F_67L) was 3.644. For the same compound, the A32_logFC (Degron-ID 2945, SEQ ID NO 196, 46F_47Q_49E_50I_52G_53A_54G_55F_67L) was 3.088, the A32_logFC (Degron-ID 2946, SEQ ID NO 168, 46F_47Q_49E_50I_52G_53A_54H_55F_67L) was 3.172 and the A32_logFC (Degron-ID 2947, SEQ ID NO 29, 46F_47Q_49E_50I_52G_53A_54I_55F_67L) was 3.675. The A32_logFC (Degron-ID 2951, SEQ ID NO 46, 46F_47Q_49E_50I_52G_53A_54N_55F_67L) was 3.591, the A32_logFC (Degron-ID 2952, SEQ ID NO 19, 46F_47Q_49E_50I_52G_53A_54P_55F_67L) was 3.722 and the A32_logFC (Degron-ID 2954, SEQ ID NO 23, 46F_47Q_49E_50I_52G_53A_54R_55F_67L) was 3.704. The A32_logFC (Degron-ID 2955, SEQ ID NO 16, 46F_47Q_49E_50I_52G_53A_54S_55F_67L) was 3.748, the A32_logFC (Degron-ID 2957, SEQ ID NO 153, 46F_47Q_49E_50I_52G_53A_54V_55F_67L) was 3.222 and the A32_logFC (Degron-ID 2959, SEQ ID NO 146, 46F_47Q_49E_50I_52G_53A_54Y_55F_67L) was 3.234. For the same compound, the A32_logFC (Degron-ID 2976, SEQ ID NO 191, 46F_47Q_49E_50Q_52G_53A_54T_55F_67L) was 3.098, the A32_logFC (Degron-ID 2980, SEQ ID NO 34, 46F_47Q_49E_50V_52G_53A_54A_55F_67L) was 3.65 and the A32_logFC (Degron-ID 2981, SEQ ID NO 28, 46F_47Q_49E_50V_52G_53A_54C_55F_67L) was 3.686. For the same compound, the A32_logFC (Degron-ID 2982, SEQ ID NO 193, 46F_47Q_49E_50V_52G_53A_54D_55F_67L) was 3.091, the A32_logFC (Degron-ID 2983, SEQ ID NO 25, 46F_47Q_49E_50V_52G_53A_54E_55F_67L) was 3.698 and the A32_logFC (Degron-ID 2985, SEQ ID NO 156, 46F_47Q_49E_50V_52G_53A_54G_55F_67L) was 3.214. It also gave an A32_logFC (Degron-ID 2987, SEQ ID NO 24, 46F_47Q_49E_50V_52G_53A_54I_55F_67L) of 3.703, an A32_logFC (Degron-ID 2989, SEQ ID NO 158, 46F_47Q_49E_50V_52G_53A_54L_55F_67L) of 3.208 and an A32_logFC (Degron-ID 2993, SEQ ID NO 12, 46F_47Q_49E_50V_52G_53A_54Q_55F_67L) of 3.772. For the same compound, the A32_logFC (Degron-ID 2994, SEQ ID NO 22, 46F_47Q_49E_50V_52G_53A_54R_55F_67L) was 3.706, the A32_logFC (Degron-ID 2996, SEQ ID NO 18, 46F_47Q_49E_50V_52G_53A_54T_55F_67L) was 3.745 and the A32_logFC (Degron-ID 2997, SEQ ID NO 20, 46F_47Q_49E_50V_52G_53A_54V_55F_67L) was 3.711. For the same compound, the A32_logFC (Degron-ID 3003, SEQ ID NO 142, 46F_47Q_49N_50I_52G_53A_54E_55F_67L) was 3.243, the A32_logFC (Degron-ID 3012, SEQ ID NO 21, 46F_47Q_49N_50I_52G_53A_54P_55F_67L) was 3.709 and the A32_logFC (Degron-ID 3040, SEQ ID NO 192, 46F_47Q_49N_50V_52G_53A_54A_55F_67L) was 3.094. For the same compound, the A32_logFC (Degron-ID 3041, SEQ ID NO 157, 46F_47Q_49N_50V_52G_53A_54C_55F_67L) was 3.208, the A32_logFC (Degron-ID 3061, SEQ ID NO 13, 46F_47Q_49P_50I_52G_53A_54C_55F_67L) was 3.771 and the A32_logFC (Degron-ID 3063, SEQ ID NO 43, 46F_47Q_49P_50I_52G_53A_54E_55F_67L) was 3.607. It also gave an A32_logFC (Degron-ID 3065, SEQ ID NO 26, 46F_47Q_49P_50I_52G_53A_54G_55F_67L) of 3.691, an A32_logFC (Degron-ID 3070, SEQ ID NO 41, 46F_47Q_49P_50I_52G_53A_54M_55F_67L) of 3.616 and an A32_logFC (Degron-ID 3072, SEQ ID NO 32, 46F_47Q_49P_50I_52G_53A_54P_55F_67L) of 3.651. For the same compound, the A32_logFC (Degron-ID 3073, SEQ ID NO 36, 46F_47Q_49P_50I_52G_53A_54Q_55F_67L) was 3.649, the A32_logFC (Degron-ID 3077, SEQ ID NO 30, 46F_47Q_49P_50I_52G_53A_54V_55F_67L) was 3.672 and the A32_logFC (Degron-ID 3096, SEQ ID NO 167, 46F_47Q_49P_50Q_52G_53A_54T_55F_67L) was 3.174. The A32_logFC (Degron-ID 3100, SEQ ID NO 27, 46F_47Q_49P_50V_52G_53A_54A_55F_67L) was 3.688 and the A32_logFC (Degron-ID 3103, SEQ ID NO 14, 46F_47Q_49P_50V_52G_53A_54E_55F_67L) was 3.762.

Source: patent US20260284208A1, “SYSTEM” (Oxford University Innovation Limited, priority 2023, published 2026)
